Values from PubChem BioAssay AID1224826 (NIAID, 2016)
The whole screen tested about 17,000 reagents; below is a random part of them. Over the whole deposit, about 1,110 (6.6%) got an active call. 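Active means lowered or raised reporter signal; replicate intensities are raw and not normalised per plate.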

Aim: 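Regulators of Tlr4 signalling leading to Tnf-alpha expression in macrophages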 (primary screen)
System: RAW264.7 G9 macrophages from mouse bearing reporters for p65 (GFP) and the Tnf promoter (mCherry)
Reagents: siRNA pool against mouse genes, 100 nM
Time to read-out: 16 h of LPS stimulation, after 2 days of siRNA transfection
Challenge: bacterial lipopolysaccharide (Salmonella minnesota R595), 10 ng/ml
Measured: 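Imaged Tnf reporter mCherry in nuclei, minus background, normalised per plate to the median and expressed as robust z-scores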
Reading the numbers: Tnf reporter robust z-score: higher = stronger Tnf promoter reporter signal after LPS; Tnf reporter intensity: higher = stronger Tnf promoter reporter signal
Call rule: 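Called active when robust z-score is at most -1.3, matching the median of the Tlr4 knock-down control, or over 3; control wells and wells with under 50 cells never active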
Meaning of the calls: active = Tnf reporter clearly lowered or raised; inactive = no clear change in Tnf reporter

Target gene	Tnf reporter robust z-score	fewer than 50 cells in well	Tnf reporter intensity, replicate 1	Tnf reporter intensity, replicate 2	activity call
Vmn1r189	0.71	enough cells in well	124	130	inactive
Cfap68	0.66	enough cells in well	404	71.4	inactive
Or2w6	-0.28	enough cells in well	178	98.7	inactive
Scn11a	0.44	enough cells in well	308	258	inactive
Zfp2	-0.19	enough cells in well	119	114	inactive
Mpped1	-0.35	enough cells in well	184	132	inactive
Egln2	0.82	enough cells in well	236	148	inactive
Gtpbp1	1.62	enough cells in well	346	277	inactive
Pcdhb11		fewer than 50 cells per well; well left out of calls	76.9	43.1	inactive
A330041J22Rik	-0.45	enough cells in well	123	155	inactive
Eml3	-0.83	enough cells in well	160	136	inactive
Nagk	0.87	enough cells in well	201	258	inactive
Hcfc1	1.3	enough cells in well	326	284	inactive
Tmem53	-0.37	enough cells in well	248	38.9	inactive
Dctn2	0.19	enough cells in well	243	246	inactive
Mesd	-1.13	enough cells in well	128	155	inactive
Ube4b	0.09	enough cells in well	244	229	inactive
Spata2l	0.33	enough cells in well	275	138	inactive
Ccdc181		fewer than 50 cells per well; well left out of calls	258	85.8	inactive
Vmn1r52	-1.3	enough cells in well	68.9	54	active
Cntn6	0.12	enough cells in well	229	242	inactive
Strap	1.03	enough cells in well	129	139	inactive
Tor4a		fewer than 50 cells per well; well left out of calls	112	86.4	inactive
Pomt2	-0.64	enough cells in well	120	83.7	inactive
